# Test results: the supplement of paper PMC5949888
# ± gives the standard deviation of the averaged measurements. Most values lie at the floor of the assay. Slopes are relative: functional sequences can read slightly below zero.
# Tested on: Saccharomyces cerevisiae PS128 hsf1 delta, HSF1(1-493) fusion
# Experiment: growth estimate (transactivation domain function in HSF1 fusion, heat-shock survival) (a.u. (slope of normalised read count over time)); higher = stronger growth at 37°C, i.e. more transactivation activity
# Conditions: library: random library
# Experimental: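 Random 60-nt DNA library encoding peptides of up to 20 aa, fused to the C-terminus of yeast HSF1 residues 1-493 (C-terminal TAD deleted) and expressed from the native HSF1 promoter on a CEN plasmid in hsf1-deleted S. cerevisiae PS128. Cells were selected at 37°C on -trp 5-FOA plates for 0, 2, 4, 6 and 8 days and amplicons were sequenced. Growth estimate is the slope of a robust linear fit of total-sum-normalised read counts (normalised to the first time point) over time, using at least 2 replicates. Sequences are classed functional (TAD activity) above a threshold of -0.13, set from stop-codon control sequences.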
row,Substance,growth estimate
1,VWRRRRHRCWQYLLLFICQR,< -0.25
2,LVLRLYTERQQLGWKPGHSV,< -0.25
3,NVAESFSECSVNPRRKNSFD,< -0.25
4,KGRNY,< -0.25
5,NPGIRWQLASGRWRR,< -0.25
6,LLSDGRSFAVAPK,< -0.25
7,ASGSLYK,< -0.25
8,CCNKEKHQDRRARTFSDLAE,< -0.25
9,DYEELDFSVYEAEIVSGN,2.4
10,IEPY,< -0.25
11,LLGSQAVKRVLDTVLLGSSR,< -0.25
12,SGMSAEVWAKGRG,< -0.25
13,TDMSDITRGSILSNTYGNIA,< -0.25
14,ALRRERAQWCMRSTLSFGGC,< -0.25
15,GSAPQSLDLGLFGQRDMRVP,< -0.25
16,GVKFVCSFVF,< -0.25
17,FGFEALGLDSLRVHNCSWNL,-0.201
18,AHVGFPLD,< -0.25
19,SRGAQAT,< -0.25
20,DCNVPTLRRSQTMTRTTEPL,< -0.25
21,PMVIAPGPMHISRTSVKALP,< -0.25
22,TEDFKSAVAIGKRTTSPLYG,< -0.25
23,CRIQGSPLPRRSLIVNTLCA,< -0.25
24,PEEGIAEVRSRQLRTRYRHS,< -0.25

row,Substance,growth estimate
1,GASWGSVSS,< -0.25
2,GHPICGVYRNDFTC,< -0.25
3,ITEDFSRSAFEWCNTRVMPL,< -0.25
4,SAHVRAVIPGAISWSLIRRP,-0.246
5,ATFPHQITRWALTASFR,< -0.25
6,RRGQSASCTIDPACTS,< -0.25
7,LHAYV,< -0.25
8,RVSEIMHLL,-0.245
9,TLRLSMCTWNKK,< -0.25
10,HRCTYNAQWGSGSRCTICLV,< -0.25
11,FEIDTLGRPGWWALGPSQSR,< -0.25
12,TCLSPVRTNPGVCGTQLSDD,< -0.25
13,LFRGMPVAK,< -0.25
14,FPTLRPCWWDCA,< -0.25
15,ISLGTCSSDLGPWGCKHYR,< -0.25
16,FGPEIYASLRVDSESFSISG,< -0.25
17,LYRIDFASASSRA,< -0.25
18,GLHGGCDGPRHRDIREQRPV,< -0.25
19,RLYNACLIYGATGRHLYGRV,< -0.25
20,GSLS,< -0.25
21,GGIGFFRGSSTNYDGRGTE,< -0.25
22,KESNESTMNQRYTRRKVS,< -0.25
23,LLLANLNSLQDRQAQRVIGG,< -0.25
24,TQRGHDPLF,< -0.25

row,Substance,growth estimate
1,GAPEGHLQSPLTSLGYTSVL,< -0.25
2,ARITMG,< -0.25
3,RQHNKDPWGLPHILRSHQET,< -0.25
4,GRAPCI,< -0.25
5,TIGPEC,< -0.25
6,LRRRPGV,< -0.25
7,CEVHICSKQITGSILTVSLL,< -0.25
8,WHETYGIGD,< -0.25
9,PMTVNTEKRLD,< -0.25
10,LCTAKCPTTAINSDFPGFNS,< -0.25
11,QDTGKV,-0.246
12,WMGSEKIGVKCCVPSRASRS,< -0.25
13,NSDVLFSVVHGWSVPYTRAA,< -0.25
14,LTCGPLILFLGGHEGGLWVS,< -0.25
15,HWSKNG,-0.191
16,FPLCV,< -0.25
17,LLVFEFY,< -0.25
18,RQYGTEDRFDQGTLAHHDSC,< -0.25
19,VQWEGIRPVDMYTRITYGSF,< -0.25
20,GFCEPKRS,< -0.25
21,QCQICLVRLMSIWPAKNAQE,< -0.25
22,QTA,< -0.25
23,ESFKRQETDLIVILSERAIA,< -0.25
24,FKTHSLQFSLIRETEQDMPD,< -0.25

row,Substance,growth estimate
1,RCNHDPVILAENVDAH,< -0.25
2,NEAPERSCWAITRSWVSNSR,< -0.25
3,NWRLRCILSQGGL,< -0.25
4,LPGLMVSPRALPRDQHLPLR,< -0.25
5,VYYFAACTRGLL,< -0.25
6,SWSFRSVPGRVSA,0.0803
7,HVTLALITYDSSQKVALVT,< -0.25
8,VVNH,< -0.25
9,VWRLTVVKWTVGGFPLGCTS,< -0.25
10,DTFG,< -0.25
11,HQNKAGQRGLSLVGLVSSSP,< -0.25
12,DFRRSL,< -0.25
13,DAHAVRHRSSFHHGEFTSQK,< -0.25
14,LGWTVQLLMTIRVRSAEEAT,< -0.25
15,TRCMLPVYAGTR,< -0.25
16,RWTVFQVS,< -0.25
17,WGRSRDARVRMGR,< -0.25
18,CISV,< -0.25
19,WGFFAVRL,0.0983
20,VPG,< -0.25
21,VNTRGVIGTLYKRVSRGSRH,< -0.25
22,HAFRRGLVCRGYKWDCAENG,-0.245
23,TGAVCHPIVQPWFFS,< -0.25
24,GRLGLATIPSHIRTCAHVA,< -0.25

# Laid out differently: results already given.
row	Substance	growth estimate
7	HVTLALITYDSSQKVALVT	< -0.25
11	HQNKAGQRGLSLVGLVSSSP	< -0.25
16	RWTVFQVS	< -0.25
23	TGAVCHPIVQPWFFS	< -0.25
24	GRLGLATIPSHIRTCAHVA	< -0.25

# Remaining list, next part.

row,Substance,growth estimate
1,PNGLQGQRGPTPAIMDDRGV,< -0.25
2,LNTGNYKYD,< -0.25
3,VKDKKVFEGHIIYYGCMIRS,< -0.25
4,RCSSVST,< -0.25
5,LCETGALYMRVHTAWWIDIG,< -0.25
6,FLSLVRGGLAQVTGRQGIRG,< -0.25
7,VPNPARLDGSAEKAFDDRRT,< -0.25
8,VQGLEC,< -0.25
9,ESPNRVMIDSRPAR,< -0.25
10,QQESWN,< -0.25
11,GEACSIP,< -0.25
12,LGQSRCCPIPVQRYYERATT,< -0.25
13,LRHGLLLEHIRQTNGEEECR,< -0.25
14,KRSQLLWSVT,< -0.25
15,NLYDSPGNMKGKFVSSSASS,< -0.25
16,RWMSGDRFFWNAPGCIIRGR,< -0.25
17,PLLGQSLCRMPG,< -0.25
18,CWCRI,< -0.25
19,DRNQLCFKPNLQ,< -0.25
20,KEVW,< -0.25
21,RVQGGSFCSSV,< -0.25
22,LPQLAE,< -0.25
23,ESVP,< -0.25
24,RENL,< -0.25

# A different layout for some results above:
row | Substance | growth estimate
5 | LCETGALYMRVHTAWWIDIG | < -0.25
6 | FLSLVRGGLAQVTGRQGIRG | < -0.25
7 | VPNPARLDGSAEKAFDDRRT | < -0.25
8 | VQGLEC | < -0.25
9 | ESPNRVMIDSRPAR | < -0.25
10 | QQESWN | < -0.25
11 | GEACSIP | < -0.25

# Next entries follow:

row,Substance,growth estimate
1,WQGGGRS,< -0.25
2,PLGGRQVIRYGIYAGEIHWM,< -0.25
3,KILTEGCVKKAVCHPVRRSL,< -0.25
4,ELQEVGKTCSIKIS,< -0.25
5,AWFFKPRVVVTKGGPRPEHA,< -0.25
6,GGGAFDQFSEQHCTSWREQF,< -0.25
7,GYNDQTGPCATHRKNPPSIA,< -0.25
8,FKIVPARWPGLAINAVRRRV,< -0.25
9,ARETSADRFLPQVRVRGKHH,< -0.25
10,RNRSNAGDRQALSRELLCHG,< -0.25
11,HIEAGKEVVHNFVNGGEGSG,< -0.25
12,VKILNTGLASEGHALDTRNE,< -0.25
13,YILCVSECLLK,< -0.25
14,ILCWGTVAIVQ,< -0.25
15,RTVEPVELIGELVGS,< -0.25
16,GEEGICKAVQIGCPVPKS,0.342
17,PRG,< -0.25
18,YGQIEGVWKAGHKRRRFEDQ,-0.231
19,KFISS,< -0.25
20,SSLLKLRHPLHIIVADF,< -0.25
21,SGSKF,< -0.25
22,LEGLVSCTGTHGHPLSPHYP,< -0.25
23,EKSRHQYEGLLSTEWRFSSL,0.251
24,SRTSVKPNLYDSDCMGHKPS,< -0.25

row,Substance,growth estimate
1,YERLE,< -0.25
2,VARQTVGRSITTRQRLQSSW,< -0.25
3,APQGGLGCMPLRVPDGAKRA,< -0.25
4,PGSRSVDFC,< -0.25
5,SWSE,0.251 ± 0.71
6,KSIDCKVGLRHDSRTEI,< -0.25
7,RLVGGRRRGSIPRRPAHLSL,-0.25
8,SEF,< -0.25
9,VKGVSKL,< -0.25
10,NRRVVLRVA,< -0.25
11,LGIATTHSYGVVG,< -0.25
12,VIMLDILA,< -0.25
13,GERHVVPEYWLQASVIHAGR,< -0.25
14,IQCVLFAGLLPTSQAVF,< -0.25
15,LLGISDRSSPCFA,< -0.25
16,QVTYSFTEGGFSEVWTSATG,< -0.25
17,QTSIHSQGLPVGGG,< -0.25
18,CSMLVDVVHGRTDRSSVI,< -0.25
19,RVGPRCIGCSWHCLYRSSLY,< -0.25
20,YEG,< -0.25
21,MLSPPVSGFYGIGRGDSLT,< -0.25
22,LCLIGKAGLRTGMPRD,< -0.25
23,ADLLSDGDTKSGRVAVRPDS,< -0.25
24,SGAAYHDVLIYYKMNLGLAA,< -0.25

row,Substance,growth estimate
1,RVFLTLEMSSDPMRLFSRRS,-0.245
2,THDG,< -0.25
3,VVPYL,< -0.25
4,RVGPSLQALSRVVRAFYG,< -0.25
5,QNPGKHMFAPCQIECAGQMV,< -0.25
6,GRHISR,< -0.25
7,LAQNHFLFTVGI,< -0.25
8,ERMEQHLSPR,< -0.25
9,PMQELSGCHGMGQSYCHPHR,< -0.25
10,YCRSSSKENALFLYLL,< -0.25
11,VLGFMSADAGRPKVTGNGAP,< -0.25
12,HGSSDTARSARGWLCTLAPC,< -0.25
13,PPHVQCDTGVN,< -0.25
14,LFVNRKSTTGCRSL,< -0.25
15,VSCRAENIAGISLL,< -0.25
16,ATLIVVIQATSSHGGP,< -0.25
17,RVMGLRGSGHKNPGSIKVSL,< -0.25
18,MMVGPD,< -0.25
19,PWSGHKKVRRPLDHDWGTVP,< -0.25
20,VQPG,< -0.25
21,FLKIFVLSLGLRVKCRLLKR,< -0.25
22,KTSI,< -0.25
23,AFPAIEPQR,< -0.25
24,NVFFAKLGYYSWGRGYN,< -0.25
